Paper doi:10.1101/2020.08.20.259234
These are yes or no findings as the source states them, for the method shown. Binding seen in cells or lysates may run through a third protein. Here binding means that the protein was enriched with, or labelled near, the bait; the list need not be complete. For part of these data: Sequences can lack the tags named with a protein.

T1: BirA*-Roquin-1 (UniProt Q4VGL6)
T1 sequence: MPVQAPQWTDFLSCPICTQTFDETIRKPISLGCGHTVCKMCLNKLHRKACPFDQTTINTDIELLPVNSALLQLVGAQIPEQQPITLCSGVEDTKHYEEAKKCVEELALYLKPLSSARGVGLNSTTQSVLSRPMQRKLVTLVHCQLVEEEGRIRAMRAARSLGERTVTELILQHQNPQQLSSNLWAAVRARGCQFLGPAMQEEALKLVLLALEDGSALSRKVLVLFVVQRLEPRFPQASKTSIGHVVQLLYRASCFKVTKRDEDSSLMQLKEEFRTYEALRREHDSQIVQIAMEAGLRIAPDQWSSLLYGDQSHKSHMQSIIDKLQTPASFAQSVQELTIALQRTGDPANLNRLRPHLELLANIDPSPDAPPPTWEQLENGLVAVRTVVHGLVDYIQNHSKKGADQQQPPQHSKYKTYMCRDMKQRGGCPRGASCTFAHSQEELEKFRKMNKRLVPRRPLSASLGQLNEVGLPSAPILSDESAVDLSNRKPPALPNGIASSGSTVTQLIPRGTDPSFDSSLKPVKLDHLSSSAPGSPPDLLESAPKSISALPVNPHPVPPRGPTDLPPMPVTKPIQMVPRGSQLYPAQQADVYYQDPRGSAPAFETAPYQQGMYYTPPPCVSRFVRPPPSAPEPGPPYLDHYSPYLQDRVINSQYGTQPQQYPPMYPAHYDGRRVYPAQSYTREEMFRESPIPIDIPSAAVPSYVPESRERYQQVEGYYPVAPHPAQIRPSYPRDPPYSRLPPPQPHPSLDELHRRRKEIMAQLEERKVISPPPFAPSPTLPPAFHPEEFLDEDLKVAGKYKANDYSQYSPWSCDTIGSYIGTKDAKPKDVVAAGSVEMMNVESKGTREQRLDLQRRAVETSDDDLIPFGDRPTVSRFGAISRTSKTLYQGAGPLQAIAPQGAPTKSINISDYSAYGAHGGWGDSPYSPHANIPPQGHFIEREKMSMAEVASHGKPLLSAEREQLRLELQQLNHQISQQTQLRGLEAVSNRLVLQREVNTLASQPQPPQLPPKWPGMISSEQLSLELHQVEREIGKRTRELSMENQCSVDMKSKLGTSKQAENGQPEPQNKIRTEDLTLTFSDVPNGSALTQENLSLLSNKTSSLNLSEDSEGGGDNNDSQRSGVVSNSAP

T2: Myc-BirA*-Roquin-1 (UniProt Q4VGL6)
T2 sequence: T1 sequence

B1: Roquin-2 (protein, UniProt P0C090 1-1187)
chain: MPVQAAQWTEFLSCPICYNEFDENVHKPISLGCSHTVCKTCLNKLHRKACPFDQTAINTDIDVLPVNFALLQLVGAQVPDHQSIKLSNLGENKHYEVAKKCVEDLALYLKPLSGGKGVASLNQSALSRPMQRKLVTLVNCQLVEEEGRVRAMRAARSLGERTVTELILQHQNPQQLSANLWAAVRARGCQFLGPAMQEEALKLVLLALEDGSALSRKVLVLFVVQRLEPRFPQASKTSIGHVVQLLYRASCFKVTKRDEDSSLMQLKEEFRSYEALRREHDAQIVHIAMEAGLRISPEQWSSLLYGDLAHKSHMQSIIDKLQSPESFAKSVQELTIVLQRTGDPANLNRLRPHLELLANIDPNPDAVSPTWEQLENAMVAVKTVVHGLVDFIQNYSRKGHETPQPQPNSKYKTSMCRDLRQQGGCPRGTNCTFAHSQEELEKYRLRNKKMSATVRTFPLLNKVGVNSTVTTTAGNVISVIGSTETTGKIVASTNGISNTESSVSQLIPRGTDSAVRTLETVKKVGKVGTNAQNAGPSAESVSENKIGSPPKTPVSNAAATSAGPSNFGTELNSLPPKSSPFLTRVPVYPQHSESIQYFQDPRTQIPFEVPQYPQTGYYPPPPTVPAGVTPCVPRFVRSSNVPESSLPPASMPYADHYSTFSPRDRMNSSPYQPPPPQQYGPVPPVPSGMYAPVYDSRRIWRPAMYQRDDIIRSNSLPPMDVMHSSVYQTSLRERYNSLDGYYSVACQPPNDPRTTVPLPREPCGHLKTSCEEQLRRKPDQWTQYHTQKTPVSSTLPVATQSPTPPSPLFSVDFRSDFSESVSGAKFEEDHLSHYSPWSCGTIGSCINAIDSEPKDVIANSNAVLMDLDSGDVKRRVHLFEAQRRTKEEDPIIPFSDGPIISKWGAISRSSRTGYHTTDPVQATASQGSATKPISVSDYVPYVNAVDSRWSSYGNDATSSAHYIERDRFIVTDLSGHRKHSSTGDLLSIELQQAKSNSLLLQREANALAMQQKWNSLDEGRHLTLNLLSKEIELRNGENDYTEDTVDTKPDRDIELELSALDTDEPDGQSEQIEEILDIQLGISSQNDQLLNGTAVENGHPAQQHQKDPGKPKRQSLGEDHVILEEQKPILPVTSCFSQPRPMSISSASCLPITTSVSVGNLILKTHVMSEDKNDFLKPIANGKMVNS
B2: Nufip2 (protein, UniProt Q5F2E7 1-692)
chain: MEEKPGQPQPQHHHSHHHPHHHPQQQQQQQSHHHHHYYFYNHSHNHHHHHHHQQPHQYLQHGAEGSPKAQPKPLKHEQKHTLQQHQETPKKKTGYGEINGNAGEREISLKSLSSDEATNPISRVLNGNQQVVETSLKQTVKTSTFGKAGIKTKNFIQKNSMDKKNGKSYENKSGETQAVDKTDTIAIPNGVITSSSGYITNGYMSKGADNDGSGSESGYTTPKKRKARRNSAKGCENLNLVQDKIMQETSVPALKQGLETLKPDYSEQKGMRVDGSKPIWKYETGPGGTSRGKPAMGDVLRKSSDIKPGLSSKKFDDRPKGKHASAAASKEDSWTLFKPPPVFPVDNSSAKIVPKISYASKVKENLNKTVQNSSVSPSSSSSSSSTGETQTQSSSRLSQVPMSALKSVTSASFSNGPVLAGTDGSVYPSGGQPLLTTAANTLTPISTGTDSVLQDMSLASAAVEQIKSSLFIYPSNMQTVLLSAQVDLPSQTDQQNLGDIFQNQWGLSFINEPSAGPETVIGKSSDHKVMEVTFQGEYPATLVSQGAEIIPSGTEHPVFPKAYELEKRTSPQVLGHILKPGTTESGALSLDPSHIGDLQKADTSSQGALVFLSKDYEIENQNPLASPTNTLLGSAKEQRYQRGLERNDSWGSFDLRAAIVYHTKEMESIWNLQKQDPKRIITYNEAMDSPDQ

Columns and labels:
BirA*-Roquin-1 = target: T1, BirA*-Roquin-1; test: proximity labelling
Myc-BirA*-Roquin-1 = target: T2, Myc-BirA*-Roquin-1; test: proximity labelling

Binder	binding (BirA*-Roquin-1)	binding (Myc-BirA*-Roquin-1)
B1	binds	
B2	binds	binds
